Measurements reported in PubChem BioAssay AID1259425 (University of Nebraska Medical Center, 2018)
Screen: 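Find knockdowns that reproduce the gene expression pattern seen when KSR1 is lost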 (primary screen). Cells: HCT116 human colon cancer cells. Knock-down reagent: siRNA pool against human genes, 50 nM siRNA. Measurement: 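After 50 nM siRNA pool, branched-DNA assay measures six marker transcripts per well, minus blank, normalised to the geometric mean of two housekeeping transcripts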. Scale: BNIP3L mRNA: higher = more BNIP3L transcript after knockdown; NDRG1 mRNA: higher = more NDRG1 transcript after knockdown; BNIP3 mRNA: higher = more BNIP3 transcript after knockdown.
The whole screen tested about 14,000 reagents; shown is an unselected part. The numbers tell different reagents against one gene apart. Further read-outs or replicates are left out here. The record does not give: the time to read-out.

The opening 2 entries, to show the layout:
| gene symbol | pool no. | BNIP3L mRNA, set 1 | NDRG1 mRNA, set 1 | BNIP3 mRNA, set 1 |
| --- | --- | --- | --- | --- |
| CSF2 (GeneID 1437) | 1 | 0.0681 | 0.0847 | 0.226 |
| NOP2 (GeneID 4839) | 1 | 0.176 | 0.519 | 0.26 |

The list itself, from the first entry:
| gene symbol | pool no. | BNIP3L mRNA, set 1 | NDRG1 mRNA, set 1 | BNIP3 mRNA, set 1 |
| --- | --- | --- | --- | --- |
| CSF2 (GeneID 1437) | 1 | 0.0681 | 0.0847 | 0.226 |
| NOP2 (GeneID 4839) | 1 | 0.176 | 0.519 | 0.26 |
| NAT10 (GeneID 55226) | 1 | 0.154 | 0.274 | 0.548 |
| CSHL1 (GeneID 1444) | 1 | 0.134 | 0.301 | 0.445 |
| CTTN (GeneID 2017) | 1 | 0.104 | 0.84 | 0.33 |
| DESI1 (GeneID 27351) | 1 | 0.184 | 0.113 | 0.38 |
| TARBP1 (GeneID 6894) | 1 | 0.066 | 0.121 | 0.274 |
| TRIM26 (GeneID 7726) | 1 | 0.0727 | 0.14 | 0.22 |
| ING1 (GeneID 3621) | 1 | 0.206 | 0.32 | 0.323 |
| AJAP1 (GeneID 55966) | 1 | 0.139 | 0.302 | 0.378 |
| ELAC2 (GeneID 60528) | 1 | 0.118 | 0.192 | 0.474 |
| NECTIN1 (GeneID 5818) | 1 | 0.0516 | 0.273 | 0.178 |
| MICAL3 (GeneID 57553) | 1 | 0.0491 | 0.546 | 0.351 |
| MICAL3 (GeneID 57553) | 2 | 0.116 | 0.921 | 0.672 |
| G2E3 (GeneID 55632) | 1 | 0.914 | 2.43 | 3.6 |
| NRXN2 (GeneID 9379) | 1 | 0.184 | 0.234 | 0.432 |
| CCDC22 (GeneID 28952) | 1 | 0.152 | 0.647 | 0.309 |
| KIF13A (GeneID 63971) | 1 | 0.0524 | 0.397 | 0.308 |
| HSPA14 (GeneID 51182) | 1 | 0.212 | 0.121 | 0.412 |
| ATXN2 (GeneID 6311) | 1 | 0.102 | 0.276 | 0.207 |
| LAT (GeneID 27040) | 1 | 0.0545 | 0.368 | 0.174 |
| SLC26A6 (GeneID 65010) | 1 | 0.141 | 0.25 | 0.303 |
| MTM1 (GeneID 4534) | 1 | 0.0948 | 0.355 | 0.224 |
| RUNX3 (GeneID 864) | 1 | 0.0881 | 0.104 | 0.288 |
| CD180 (GeneID 4064) | 1 | 0.0683 | 0.144 | 0.261 |
| GPR42 (GeneID 2866) | 1 | 0.453 | 0.526 | 1.02 |
| YEATS4 (GeneID 8089) | 1 | 0.104 | 0.27 | 0.283 |
| UFSP2 (GeneID 55325) | 1 | 0.0769 | 0.0744 | 0.265 |
| SIRPG (GeneID 55423) | 1 | 0.0768 | 0.188 | 0.231 |
| TOR1AIP2 (GeneID 163590) | 1 | 0.122 | 0.286 | 0.407 |
| MGAT4C (GeneID 25834) | 1 | 0.207 | 0.52 | 0.603 |
| GIMAP5 (GeneID 55340) | 1 | 0.0598 | 0.0867 | 0.25 |
| STK40 (GeneID 83931) | 1 | 0.127 | 0.443 | 0.209 |
| MYOM2 (GeneID 9172) | 1 | 0.0873 | 0.477 | 0.181 |
| INTS9 (GeneID 55756) | 1 | 0.0921 | 0.249 | 0.25 |
| KCND1 (GeneID 3750) | 1 | 0.0611 | 0.177 | 0.288 |
| CD4 (GeneID 920) | 1 | 0.0496 | 0.0642 | 0.472 |
| OAS2 (GeneID 4939) | 1 | 0.061 | 0.22 | 0.233 |
| PKHD1 (GeneID 5314) | 1 | 0.051 | 0.219 | 0.283 |
| SLC15A1 (GeneID 6564) | 1 | 0.105 | 0.709 | 0.172 |
| PRR4 (GeneID 11272) | 1 | 0.13 | 0.0689 | 0.277 |
| RENBP (GeneID 5973) | 1 | 0.103 | 0.248 | 0.228 |
| SPCS1 (GeneID 28972) | 1 | 0.146 | 0.146 | 0.322 |
| EIF4E (GeneID 1977) | 1 | 0.159 | 1.66 | 0.277 |
| GPATCH4 (GeneID 54865) | 1 | 0.161 | 0.225 | 0.352 |
| MAP4K2 (GeneID 5871) | 1 | 0.289 | 0.0994 | 0.163 |
| PLEKHA5 (GeneID 54477) | 1 | 0.138 | 0.144 | 0.301 |
| ALB (GeneID 213) | 1 | 0.133 | 0.2 | 0.259 |
| H2AC4 (GeneID 8335) | 1 | 0.0635 | 0.926 | 0.276 |
| DYNC2LI1 (GeneID 51626) | 1 | 0.0573 | 0.393 | 0.228 |
